According to ChEMBL document CHEMBL1150308, “Cytotoxic constituents from Brazilian red propolis and their structure-activity relationship” (Bioorg Med Chem, 2008):

Key:
Assay type in all cases: functional, cell-based
[1] = Cytotoxicity against mouse colon 26-L5 cells after 72 hrs by MTT assay
[2] = Cytotoxicity against mouse B16-BL6 cells after 72 hrs by MTT assay; conditions: B16-BL6, 72 h
[3] = Cytotoxicity against mouse LLC cells after 72 hrs by MTT assay; conditions: Lewis lung carcinoma
A549 = experiment: Cytotoxicity against human A549 cells after 72 hrs by MTT assay; conditions: A549, 72 h
HeLa = experiment: Cytotoxicity against human HeLa cells after 72 hrs by MTT assay
HT-1080 = experiment: Cytotoxicity against human HT1080 cells after 72 hrs by MTT assay; conditions: HT-1080, 72 h

Work on `O=C1C[C@@H](c2ccccc2)Oc2cc(O)ccc21` yielded an IC50 [1] of 51.9 µM, an IC50 [2] of 99.9 µM and an IC50 [3] of over 100 µM. The IC50 (A549) was over 100 µM, the IC50 (HeLa) was over 100 µM and the IC50 (HT-1080) was over 100 µM.
